Values from PubChem BioAssay AID743454 (Peter MacCallum Cancer Centre, 2014).
Purpose: 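Genes whose loss kills vorinostat-resistant colon cancer cells under vorinostat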 (primary screen). System: human HCT116-VR colon cancer cells, selected for vorinostat resistance. Reagents: siRNA pool against human genes, 40 nM siRNA pool. Timing: vorinostat for 24 h, read-out about 72 h after transfection. Treatment: vorinostat at 2.5 µM final. Measured: 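Cell viability by CellTiter-Fluor and caspase 3/7 activity by luminescence, each scaled to mock wells per plate, duplicates averaged, then robust z-scored over all plates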. Scale: viability robust z-score: higher = more viable cells than screen typical; caspase robust z-score: higher = more caspase 3/7 activity than screen typical. Rule for the call: 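Hits are knock-downs in viability class RV1/RV2 or caspase class CA1/CA2, excluding ones that killed cells in the no-drug cell-count arm; hits then retested with single siRNAs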.
In all, the deposit lists about 18,000 reagents; this is an unselected part. 450 of them (2.5%) were called active. 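Single biological run; no consistent viability z cut-off exists, so the class columns, not z-scores, define the calls.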

no.	gene	viability hit class	caspase hit class	viability robust z-score	caspase robust z-score	Outcome
1	PPFIA2	no change	no change	-0.92	3.25	inactive
2	TMEM41A	no change	no change	-1.23	3.2	inactive
3	HLA-C	no change	no change	0.83	-0.2	inactive
4	CBLN1	no change	no change	0.02	0.04	inactive
5	CGRRF1	no change	CA2 (caspase activation)	-2.68	6.83	active
6	RAB3IP	no change	no change	1.19	-0.94	inactive
7	CPA1	no change	no change	-0.11	-0.92	inactive
8	MINDY1	no change	no change	1.16	0.26	inactive
9	PIWIL4	no change	no change	0.28	-0.08	inactive
10	ALKBH3	no change	no change	1.38	-0.31	inactive
11	ATAD3C	no change	no change	-0.02	-1	inactive
12	ZDHHC4	no change	no change	0.16	1.43	inactive
13	PRSS1	no change	no change	0.58	-0.63	inactive
14	FBN3	no change	no change	-0.24	0.43	inactive
15	ATL2	no change	no change	-0.36	1.54	inactive
16	SERPINB12	no change	no change	-3	0.36	inactive
17	AKAP7	no change	no change	-1.9	-0.57	inactive
18	BTAF1	no change	no change	-0.21	-0.04	inactive
19	MAP7D1	no change	no change	0.23	-0.62	inactive
20	PHF1	no change	no change	-0.31	0.01	inactive
21	TAF4	no change	no change	-0.18	-0.32	inactive
22	ARHGDIA	no change	no change	-0.78	-1.06	inactive
23	GRPEL2	no change	no change	-2.08	-0.76	inactive
24	TRIM4	no change	CA1 (caspase activation)	-1.3	5.22	active
25	NDUFS3	no change	no change	-0.88	0.41	inactive
26	AKR1C1	no change	no change	-0.12	2.96	inactive
27	CDK13	no change	no change	1.32	-0.32	inactive
28	NOTUM	no change	no change	-0.14	-0.88	inactive
29	TTC31	no change	no change	-1.91	0.26	inactive
30	TPH1	no change	no change	1.14	0.12	inactive
31	HOXA5	no change	no change	-1.21	-0.6	inactive
32	RPS5	no change	no change	-3.15	-0.84	inactive
33	TRAM2	no change	no change	-1.44	-0.68	inactive
34	RPS8	no change	no change	-5.12	-1.52	inactive
35	CWH43	no change	no change	-0.67	-1.25	inactive
36	GATB	no change	no change	0.4	1.29	inactive
37	CHIC1	no change	no change	-0.93	0.02	inactive
38	NUDT16	no change	no change	-0.16	0.64	inactive
39	FOXK1	no change	no change	0.87	2.97	inactive
40	ETFA	no change	no change	1.04	-0.42	inactive

Continued (4 carried over from the part before).
no.	gene	viability hit class	caspase hit class	viability robust z-score	caspase robust z-score	Outcome
37	CHIC1	no change	no change	-0.93	0.02	inactive
38	NUDT16	no change	no change	-0.16	0.64	inactive
39	FOXK1	no change	no change	0.87	2.97	inactive
40	ETFA	no change	no change	1.04	-0.42	inactive
41	EPX	no change	no change	-0.14	-0.6	inactive
42	TMED4	no change	no change	-3.12	3.58	inactive
43	MED15	no change	no change	1.16	-0.48	inactive
44	BTBD3	no change	no change	0.9	0.11	inactive
45	G6PD	no change	no change	-1.55	0.62	inactive
46	THSD1	no change	no change	0.38	0.55	inactive
47	CRIPTO	no change	no change	-0.51	-0.59	inactive
48	TM4SF18	no change	no change	0.16	-0.73	inactive
49	ZNF512B	no change	no change	-0.16	-1.12	inactive
50	PPAN-P2RY11	no change	no change	-1.73	0.91	inactive
51	STON1-GTF2A1L	no change	no change	0.62	1.52	inactive
52	AKT1	no change	no change	-0.98	5.03	inactive
53	PGAM1	RV2 (reduced viability)	no change	-3.12	3.27	active
54	WARS1	no change	no change	-0.59	-0.86	inactive
55	SCN5A	no change	no change	0.76	0.42	inactive
56	TSSK4	no change	no change	1.06	-0.42	inactive
57	ARB2A	no change	no change	-0.28	1.18	inactive
58	HYAL1	no change	no change	-0.58	3.12	inactive
59	MBOAT2	no change	no change	-0.1	-0.52	inactive
60	ARAF	no change	no change	1.57	-0.52	inactive
61	GEMIN7	no change	no change	-0.58	-0.93	inactive
62	ZNF800	no change	no change	0.38	-0.86	inactive
63	PAGE4	no change	no change	-1.13	0.52	inactive
64	EIF2B3	no change	no change	-2.83	0.08	inactive
65	COL2A1	no change	no change	0.76	0.4	inactive
66	HEY2	no change	no change	0.16	-0.38	inactive
67	IFNK	no change	no change	-1.31	-0.58	inactive
68	TFEC	no change	no change	-0.1	-1.09	inactive
69	ARRB1	no change	no change	1.17	2.05	inactive
70	GLG1	no change	no change	-0.09	0.84	inactive
71	EID2B	no change	no change	-0.2	2.84	inactive
72	ABTB2	no change	no change	1	1.26	inactive
73	GCFC2	no change	no change	-0.12	0.65	inactive
